Data: PMC5488176
These are yes or no findings as the source states them, for the method shown. In cells and extracts the contact can be indirect. These calls come from enrichment with a bait or labelling near it, and not all partners need be listed.

Amino acid sequences for entries named in this document (tags omitted).
UniProt F4J8G7: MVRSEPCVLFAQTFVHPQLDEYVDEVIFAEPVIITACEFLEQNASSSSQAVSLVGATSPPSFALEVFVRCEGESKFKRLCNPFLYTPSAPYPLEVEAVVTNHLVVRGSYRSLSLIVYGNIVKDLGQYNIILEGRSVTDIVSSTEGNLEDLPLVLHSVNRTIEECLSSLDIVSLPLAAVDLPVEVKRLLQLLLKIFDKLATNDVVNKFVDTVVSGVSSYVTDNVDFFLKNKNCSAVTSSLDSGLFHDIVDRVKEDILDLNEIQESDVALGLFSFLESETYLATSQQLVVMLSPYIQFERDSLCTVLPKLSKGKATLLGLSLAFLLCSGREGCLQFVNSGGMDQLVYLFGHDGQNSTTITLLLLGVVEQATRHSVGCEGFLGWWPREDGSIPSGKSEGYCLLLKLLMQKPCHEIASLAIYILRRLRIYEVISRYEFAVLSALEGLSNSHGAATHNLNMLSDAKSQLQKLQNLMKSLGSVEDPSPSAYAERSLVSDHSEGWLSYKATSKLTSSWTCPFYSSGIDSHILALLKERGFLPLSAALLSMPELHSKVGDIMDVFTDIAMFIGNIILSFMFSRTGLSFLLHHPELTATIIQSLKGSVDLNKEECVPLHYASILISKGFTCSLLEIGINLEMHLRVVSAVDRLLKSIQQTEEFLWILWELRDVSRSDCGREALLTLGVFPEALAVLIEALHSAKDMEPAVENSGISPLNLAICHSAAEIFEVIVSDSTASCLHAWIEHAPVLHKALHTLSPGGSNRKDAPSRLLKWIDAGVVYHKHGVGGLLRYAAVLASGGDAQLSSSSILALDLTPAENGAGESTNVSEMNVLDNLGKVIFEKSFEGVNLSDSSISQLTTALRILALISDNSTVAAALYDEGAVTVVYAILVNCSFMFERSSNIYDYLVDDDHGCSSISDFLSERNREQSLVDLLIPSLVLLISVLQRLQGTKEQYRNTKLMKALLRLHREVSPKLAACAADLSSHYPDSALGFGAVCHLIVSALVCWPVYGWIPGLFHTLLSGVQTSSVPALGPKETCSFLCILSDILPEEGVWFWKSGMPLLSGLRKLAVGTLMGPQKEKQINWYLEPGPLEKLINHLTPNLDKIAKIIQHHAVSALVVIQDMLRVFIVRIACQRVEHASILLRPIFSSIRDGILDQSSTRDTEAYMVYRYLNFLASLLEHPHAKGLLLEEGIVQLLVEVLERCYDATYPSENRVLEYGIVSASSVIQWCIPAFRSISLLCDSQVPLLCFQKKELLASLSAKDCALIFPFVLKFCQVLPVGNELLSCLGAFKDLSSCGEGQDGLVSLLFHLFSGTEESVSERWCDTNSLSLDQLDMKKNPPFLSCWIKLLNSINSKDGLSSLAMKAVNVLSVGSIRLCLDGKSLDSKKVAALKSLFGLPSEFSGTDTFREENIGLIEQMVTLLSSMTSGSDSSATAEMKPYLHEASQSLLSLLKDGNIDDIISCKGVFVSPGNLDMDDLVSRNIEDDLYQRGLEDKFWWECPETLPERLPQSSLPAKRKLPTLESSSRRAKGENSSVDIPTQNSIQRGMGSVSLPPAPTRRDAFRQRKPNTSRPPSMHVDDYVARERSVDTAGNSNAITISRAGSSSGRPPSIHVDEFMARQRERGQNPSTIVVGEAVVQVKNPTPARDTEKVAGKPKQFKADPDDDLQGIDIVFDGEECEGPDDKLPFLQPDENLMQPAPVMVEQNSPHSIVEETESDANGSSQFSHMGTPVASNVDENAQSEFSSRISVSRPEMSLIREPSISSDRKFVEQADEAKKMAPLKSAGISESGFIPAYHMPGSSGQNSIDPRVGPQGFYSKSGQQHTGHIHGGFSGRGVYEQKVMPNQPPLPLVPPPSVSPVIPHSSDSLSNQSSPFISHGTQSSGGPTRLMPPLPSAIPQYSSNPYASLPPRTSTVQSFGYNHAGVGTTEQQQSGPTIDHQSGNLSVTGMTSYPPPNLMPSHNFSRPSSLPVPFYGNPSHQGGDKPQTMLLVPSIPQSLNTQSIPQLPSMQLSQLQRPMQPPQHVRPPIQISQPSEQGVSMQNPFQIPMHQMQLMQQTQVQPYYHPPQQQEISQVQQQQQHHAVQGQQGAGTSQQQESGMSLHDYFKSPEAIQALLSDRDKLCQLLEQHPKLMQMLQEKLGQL

Biological target: VIRILIZER (VIR) fused to the GS tag, TAP bait (Arabidopsis thaliana) (UniProt F4J8G7)
Assay: affinity purification with mass spectrometry; tandem affinity purification by the GS tag of VIR (bait) from Arabidopsis cell suspension cultures, two independent purifications (TAP1, TAP2), proteolysis and mass spectrometry; putative false positives subtracted by prior TAP experiments on wild-type and mock cultures

B1: FIP37 (FKBP12 … PROTEIN 37), endogenous (protein, UniProt Q9ZSZ8 1-330)
chain: MEFSSQDDDFGGDDSAANATRASGNRRSFGDLEDDEDDIFGSTTVAPGVRTGMILSLRGSLKNCKDDLASCQNELESAKTEIQKWKSAFQNESFVPAGKSPEPRFLIDYIQNLKSSEKSLKEQLEIAKRKEASCIVQYAKREQEMAELKSAVRDLKSQLKPASMQARRLLLDPAIHEEFSRLKNLVEEKDKKIKELQDNIAAVTFTPQSKNGKMLMAKCRTLQEENEEIGHQAAEGKIHELAIKLAMQKSQNAELRSQFEGLYKHMEELTNDVERSNETVIILQEKLEEKEKEIERVKKGLEIVSELVGDKKDEVDEIDEDAKEEIAGGE
In the case of B1, the binding is reported as “binds”.

B2: HAKAI, E3 ubiquitin ligase, endogenous (protein, UniProt Q9LFC0 1-360)
chain: MLQIRLRRDSPTETGNGARPSPTETVTVACPDHLVLADLPVAKGIGSVTPTTVIKPVGRRSRRQLGERVHFCVRCDFPIAIYGRLIPCDHAFCLECARSDSICYLCDERIQKIQTIKMMEGIFICAAPHCLRSFLKKLDFEAHVHDLHGSLLQADAEKEDGNQSDVQSTMQQSSASESTLRAPLRSQLQQSRELNRSASFAKSQSGFSQVQNYPPDSDNSRPPGFETASPKPGIRFPDYPQPMNLMQPPSLPVPMNQNPGLPQQFGFPSYPTTESGSSQQFFNGAQYEMTRTESGGSEQSSLLGYPPPSPMTNLNFQGSYPPPSWNPGMAPPHTTQQVNRGRDGQSFGWPQENRDGFGQE
In the case of B2, the binding is reported as “binds”.
